The values below come from article PMC12475854.

Sequences of proteins named here, by UniProt entry; tags and fusion partners are left off.
UniProt O08539: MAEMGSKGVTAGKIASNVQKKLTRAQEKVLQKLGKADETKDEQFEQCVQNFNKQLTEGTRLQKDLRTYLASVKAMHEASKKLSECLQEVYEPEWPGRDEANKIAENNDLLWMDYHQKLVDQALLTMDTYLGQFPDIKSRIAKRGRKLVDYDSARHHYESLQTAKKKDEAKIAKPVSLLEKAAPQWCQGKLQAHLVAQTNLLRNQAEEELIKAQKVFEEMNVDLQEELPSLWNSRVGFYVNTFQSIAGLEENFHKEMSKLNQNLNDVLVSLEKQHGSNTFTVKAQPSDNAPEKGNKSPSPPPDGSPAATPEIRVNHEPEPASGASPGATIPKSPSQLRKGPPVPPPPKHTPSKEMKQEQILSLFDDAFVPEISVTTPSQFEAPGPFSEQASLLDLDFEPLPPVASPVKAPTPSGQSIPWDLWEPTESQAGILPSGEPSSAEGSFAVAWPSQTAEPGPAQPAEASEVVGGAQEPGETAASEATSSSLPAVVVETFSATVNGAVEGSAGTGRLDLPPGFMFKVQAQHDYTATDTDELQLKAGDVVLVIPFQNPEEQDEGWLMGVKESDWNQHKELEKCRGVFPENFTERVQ
UniProt Q8CHC4: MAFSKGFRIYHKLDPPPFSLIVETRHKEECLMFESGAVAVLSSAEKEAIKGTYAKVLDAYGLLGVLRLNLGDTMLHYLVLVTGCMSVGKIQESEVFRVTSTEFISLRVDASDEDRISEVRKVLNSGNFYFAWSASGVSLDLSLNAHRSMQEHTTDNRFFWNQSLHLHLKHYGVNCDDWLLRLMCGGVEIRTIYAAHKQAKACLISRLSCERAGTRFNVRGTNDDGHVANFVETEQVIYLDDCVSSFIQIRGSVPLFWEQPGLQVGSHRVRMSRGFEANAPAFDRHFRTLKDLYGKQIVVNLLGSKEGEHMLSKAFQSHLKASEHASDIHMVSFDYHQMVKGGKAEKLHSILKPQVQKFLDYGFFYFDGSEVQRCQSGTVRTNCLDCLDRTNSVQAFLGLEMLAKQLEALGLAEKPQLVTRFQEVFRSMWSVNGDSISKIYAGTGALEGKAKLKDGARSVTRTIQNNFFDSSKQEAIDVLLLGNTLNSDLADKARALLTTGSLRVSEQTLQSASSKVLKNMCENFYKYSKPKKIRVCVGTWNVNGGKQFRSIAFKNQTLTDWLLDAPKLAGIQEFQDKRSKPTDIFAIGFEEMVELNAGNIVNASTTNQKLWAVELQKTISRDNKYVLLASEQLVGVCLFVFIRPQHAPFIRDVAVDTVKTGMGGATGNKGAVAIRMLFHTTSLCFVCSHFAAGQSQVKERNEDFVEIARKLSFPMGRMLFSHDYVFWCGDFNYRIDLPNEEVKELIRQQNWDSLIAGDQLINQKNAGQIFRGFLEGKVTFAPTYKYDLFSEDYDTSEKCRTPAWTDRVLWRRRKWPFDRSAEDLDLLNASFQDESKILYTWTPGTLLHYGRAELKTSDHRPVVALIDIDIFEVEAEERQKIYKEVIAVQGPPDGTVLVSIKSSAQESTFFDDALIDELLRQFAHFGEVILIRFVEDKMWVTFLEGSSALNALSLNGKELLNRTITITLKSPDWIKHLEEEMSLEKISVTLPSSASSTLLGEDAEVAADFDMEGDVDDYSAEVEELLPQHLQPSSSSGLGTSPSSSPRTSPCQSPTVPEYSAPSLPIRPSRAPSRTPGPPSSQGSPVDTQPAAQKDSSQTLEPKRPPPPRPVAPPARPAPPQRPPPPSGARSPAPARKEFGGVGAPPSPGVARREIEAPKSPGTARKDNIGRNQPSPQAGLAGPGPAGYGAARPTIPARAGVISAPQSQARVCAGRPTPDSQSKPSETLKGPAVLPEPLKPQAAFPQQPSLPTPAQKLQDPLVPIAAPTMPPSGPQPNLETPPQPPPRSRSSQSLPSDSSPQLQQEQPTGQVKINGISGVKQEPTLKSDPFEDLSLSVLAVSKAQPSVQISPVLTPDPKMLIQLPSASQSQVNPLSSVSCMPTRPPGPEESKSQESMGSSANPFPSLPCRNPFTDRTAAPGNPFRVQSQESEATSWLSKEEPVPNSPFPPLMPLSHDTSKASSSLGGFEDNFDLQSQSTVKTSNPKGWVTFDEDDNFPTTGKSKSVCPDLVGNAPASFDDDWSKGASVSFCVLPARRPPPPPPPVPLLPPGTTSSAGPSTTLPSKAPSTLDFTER

Results are given in words; binding and its absence hold for the method and conditions named. In cells and extracts the contact can be indirect. Some entries that bind do so weakly or less than the wild type.

The experiment concerns the target endogenous mouse BIN1 (mouse (endogenous in N2a and mouse brain)) (UniProt O08539). Description: proximity ligation; Duolink PLA on paraffin brain sections of Emx-Cre control mice with anti-BIN1 and an antibody against the partner; Emx-Cre:Bin1 knockout brain as negative control.

For the substance SYNJ1 (from UniProt Q8CHC4 1-1574), the binding entry is reported as “binds”.
